# Laboratory results from PubChem BioAssay AID1347075 (National Center for Advancing Translational Sciences (NCATS), 2019).
# “And” between values parts separate entries of the source, which are not always exact repeats. Equal entries are not always repeated. About 5,500 (1.4%) of roughly 400,000 compounds were called active. The shares of active, inactive and inconclusive entries below differ from those in the screen. The call rests on the fitted dose curve; in most records, active means well fitted cell-killing curve with a large enough effect; inconclusive means small, poorly fitted or top-dose-only effect, or effect the other way; inactive means flat fitted curve, though single readings scatter. Potencies beside an inconclusive call are fits to weak or partial responses and may not hold up.
# Experiment: qHTS assay for MDR1-selective chemotherapeutics: Primary screen using the parental adenocarcinoma cell KB-3-1; further: nearly all actives have a fitted effect of over 60% in size
# Conditions: KB-3-1 viability, CellTiter-Glo ATP luminescence, 72 h; activity change, negative = cytotoxic: at 46.1 µM (top of the series)
# Outline: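 Multi-concentration cytotoxicity screen in KB-3-1 cells grown in DMEM lacking phenol red with 10% FBS. After 72 h at 37 °C with compound, ATP-dependent luminescence was recorded.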
# On the % scale 0 is the no-effect control and ±100 the full control effect; potency means the concentration at half of the fitted maximal effect.
SMILES,Potency,"activity change, negative = cytotoxic"
O=C(Nc1nc(-c2ccccn2)cs1)c1cc(S(=O)(=O)N2CCOCC2)ccc1F,"inconclusive: 16.4 µM [cytotoxic, single point]",
FC(F)Oc1ccc(-c2csc(Cc3nnc4n3CCCCC4)n2)cc1,"inconclusive: 29.1 µM [cytotoxic, single point]",
O=C(Nc1cc(C(F)(F)F)ccc1Cl)C(Sc1n[nH]c(=O)[nH]c1=O)c1ccccc1 (stereo not given),,inconclusive: 3.25%
COc1cccc(NC(=O)/C(C#N)=C\c2cn(Cc3ccc(Cl)cc3)c3ccccc23)c1,"inconclusive: 29.1 µM [cytotoxic, single point]",
Cc1ccccc1N=C1SC(CC(=O)Nc2ccc3ccccc3c2)C(=O)N1Cc1ccccn1 (stereo not given),"inconclusive: 29.1 µM [cytotoxic, single point]",
Cc1cc(NC(=O)C2CCCC2)nc2c1c(=O)oc1ccccc12,inactive,
O=S1(=O)CCOC[C@H](c2ccccc2)N1Cc1ccc(Cl)c(Cl)c1,"inconclusive: 29.1 µM [cytotoxic, single point]",
Nc1ccccc1SC1CC(=O)N(c2ccc(Cl)c(Cl)c2)C1=O (stereo not given),inactive,
Cc1ccc2nc(SCc3ccc([N+](=O)[O-])cc3)[nH]c2c1,"inconclusive: 29.1 µM [cytotoxic, single point]",
O=C(CSc1c2c(nc3cc(Cl)ccc13)CCCC2)NCc1ccco1,inactive,
CC(C)N(C(=O)[C@H]1C[C@H](CC(=O)NCc2cccc(C(F)(F)F)c2)C(=O)N2CCc3c([nH]c4ccc(Cl)cc34)[C@]12C)C(C)C,inactive,
Cc1ccc(Cl)cc1N1CCN(C(=O)c2ccc(C)c(-n3c(C)nc4cccnc43)c2)CC1,inactive,
CCCCCCN1C[C@H](n2cc(COC(=O)c3ccccc3)nn2)[C@@H](O)C[C@@H]1c1ccc(Cl)cc1,"inconclusive: 29.1 µM [cytotoxic, single point]",
CCc1nc2ccc(C(=O)N3CCN(c4ccc(Cl)cc4)CC3)cc2nc1CC,"inconclusive: 20.6 µM [cytotoxic, single point]",
CCOCCC(=O)Nc1ccc2c(c1)c(=O)n(C)n2-c1ccc2ccccc2c1,active: 3.66 µM,
COc1cc(Nc2ccccn2)cc(C(=O)Nc2cccc(C(F)(F)F)c2)c1,"inconclusive: 18.4 µM [cytotoxic, single point] and inconclusive: 29.1 µM [cytotoxic, single point]",
COc1cccc(C(=O)C(=O)c2cccc(OC)c2OC)c1OC,inactive,
COCCN1C(=O)COc2ccccc2C1C(=O)NCc1ccccc1 (stereo not given),inactive,
O=C(NCCCc1ccccc1)c1ccc(CS(=O)Cc2ccc(Cl)cc2)o1 (stereo not given),inactive,
Cc1ccc(Cl)cc1NC(=O)C1C2CCC(O2)C1C(=O)O (stereo not given),inactive,
CCOc1cc(CNCc2ccccc2)ccc1OCc1ccc(Cl)cc1,"inconclusive: 25.9 µM [cytotoxic, single point]",
Oc1ccc(C=NNc2nc3ccccc3s2)c(O)c1,"inconclusive: 18.4 µM [cytotoxic, single point]",
Cc1ccc(NC(=O)C(Cc2ccccc2)NS(=O)(=O)c2cccc3nsnc23)c(C)c1 (stereo not given),inactive,

# Single values from the list:
# Potency with Cc1cc(NC(=O)C2CCCC2)nc2c1c(=O)oc1ccccc12 is entered as inactive
# Potency with Cc1ccccc1N=C1SC(CC(=O)Nc2ccc3ccccc3c2)C(=O)N1Cc1ccccn1 (stereo not given) is entered as inconclusive: 29.1 µM [cytotoxic, single point]

# Carrying on.

SMILES,Potency,"activity change, negative = cytotoxic"
Cc1ccc(C)c(C(=O)Nc2cc(C)nn2-c2nc(C)cc(C)n2)c1,active: 20.6 µM,
COc1ccc(-c2cc(C(F)(F)F)nc(SCCC(=O)Nc3c(C)cccc3C)n2)cc1,"inconclusive: 14.6 µM [cytotoxic, partial curve]",
CCOc1ccc(S(=O)(=O)NCc2cccnc2)cc1NC(=O)c1ccccc1F,active: 18.4 µM,
COc1ccccc1-n1c(C)c(C(C)=O)c2cc(O)ccc21,"inconclusive: 29.1 µM [cytotoxic, single point]",
C[C@H](CO)N1C[C@H](C)[C@H](CN(C)S(=O)(=O)c2cccc(F)c2)Oc2cc(Br)ccc2S1(=O)=O,inactive,
COc1ccc(N2C(=O)NC3CC2(C)Oc2ccc(Cl)cc23)cc1OC (stereo not given),"inconclusive: 29.1 µM [cytotoxic, single point]",
O=C(CSc1nc(C(F)(F)F)cc(=O)[nH]1)N1CCCC1,inactive,
CSc1ccc(C(=O)C2CCCN(C(=O)CCn3cncn3)C2)cc1 (stereo not given),inactive,
Cc1cccc(NC(=O)CSc2cc(C)c3ccccc3n2)c1,inactive,
Cn1c(=O)c2c(nc(N/N=C/c3cccs3)n2C)n(C)c1=O,"inconclusive: 8.2 µM [rising, partial curve, poor fit]",
COc1ccc(C(=O)NC(C)C2CC3CCC2C3)c(OC)c1 (stereo not given),inactive,
Cc1ccccc1NC(=O)N(O)C1(C#N)CCCCC1,inactive,
CC1(C(=O)Nc2ccc3c(c2)OCO3)Cc2c(-c3cccc(C(F)(F)F)c3)ccnc2O1 (stereo not given),"inconclusive: 29.1 µM [cytotoxic, single point]",
O=C(Nc1nc(-c2ccc(F)cc2)cs1)C1CCN(C(=O)c2ccc(F)cc2)CC1,"inconclusive: 18.4 µM [cytotoxic, single point]",
COC(=O)[C@]1(Cc2ccccc2)N[C@H](c2ccc(-c3ccc(Cl)c(Cl)c3)cc2)[C@@H]2C(=O)N(C)C(=O)[C@@H]21,"inconclusive: 29.1 µM [cytotoxic, single point]",
O=C(C1CCC(CNS(=O)(=O)c2cccs2)CC1)N1CCN(c2ccc(F)cc2)CC1 (stereo not given),"inconclusive: 0.103 µM [cytotoxic, full curve]",
COc1ccc(C(=O)NC(=S)Nc2nnn(C)n2)cc1,"inconclusive: 25.9 µM [rising, single point]",
COc1ccc(C2CC(c3ccc(Cl)cc3)=NN2c2ccc(S(N)(=O)=O)cc2)cc1 (stereo not given),"inconclusive: 29.1 µM [cytotoxic, single point]",
O=C(NCCc1ccccc1)C(=O)Nc1cccc(Br)c1,"inconclusive: 29.1 µM [rising, partial curve, poor fit]",
CCn1ncc(/C=C/C(=O)NCc2cn(C)nc2C)c1C,"inconclusive: 29.1 µM [cytotoxic, single point]",
CCOC(=O)c1cc(C#N)c(SCc2ccc(C#N)cc2)nc1C,inactive,
CCC/C=C/c1ccc(CN2C(CC(C)C)C(=O)N(Cc3cn(Cc4ccco4)nn3)CCS2(=O)=O)cc1 (stereo not given),"inconclusive: 29.1 µM [cytotoxic, partial curve, poor fit]",
